Results are given in words; binding and its absence hold for the method and conditions named. A result given as binding can be weak or reduced; the word gives no strength. Sequences can lack the tags named with a protein.

The experiment has as its target T1, recombinant (His)6-caspase-7 polypeptide (UniProt P55210).
T1 sequence: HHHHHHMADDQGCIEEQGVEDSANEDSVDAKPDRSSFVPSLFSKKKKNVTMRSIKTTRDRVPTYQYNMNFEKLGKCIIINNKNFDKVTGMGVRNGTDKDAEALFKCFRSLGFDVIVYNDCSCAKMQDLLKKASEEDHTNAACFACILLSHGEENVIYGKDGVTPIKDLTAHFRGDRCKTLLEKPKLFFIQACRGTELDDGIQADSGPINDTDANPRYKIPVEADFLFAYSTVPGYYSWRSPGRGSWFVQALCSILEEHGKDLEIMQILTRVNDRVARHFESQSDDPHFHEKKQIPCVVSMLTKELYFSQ
Kind of experiment: GST-Bcl2L12 on GSH beads with increasing amounts of soluble (His)6-caspase-7, Coomassie stain and western blot. A general note: A western blot detects proteins with antibodies after separation by electrophoresis.

Regarding GST-Bcl2L12 polypeptide, the binding entry is listed as “binds”.

Source of the values: US20060252053A1 (Dana-Farber, published 2006).
